Experimental data as given in publication PMC6749325, “Hybrids of Cinchona Alkaloids and Bile Acids as Antiparasitic Agents Against Trypanosoma cruzi” (Molecules, 2019).

Test system: T. cruzi Y (DTU II) trypomastigotes
Experiment: Trypomastigote IC50 estimation, Y strain
Format: cell-based, Trypanosoma cruzi
Protocol: The NRK and Vero cell lines were routinely maintained in DMEM (Gibco) supplemented with 10% SFB (Natocor) and Penicillin/Streptomicin (100 Units/0.1mg/mL, Sigma) at 37 °C and 5% CO2 atmosphere. The trypomatigotes of T. cruzi strains CL Brener, Y, and RA were routinely maintained in Vero cells cultured in DMEM supplemented with 4% SFB and Penicillin/Streptomicin. The trypomastigotes of each strain were purified from infected Vero cells supernatants and used in the different assays.
2 × 10^6/mL trypomastigotes were incubated with different concentrations of the hybrids, control drug or vehicle, by triplicate at 37 °C and 5% CO2 for 24 h. Next, trypomastigotes were counted in a Neubauer chamber. The IC50 ± SD (n = 3) were estimated using the “Dose–Response” module in Graphpad Prism.

Structure (SMILES)	fold difference compared to the IC50 value of Bz
C=CC1CN2CCC1CC2C(O)c1cc(CCC(C)C2CCC3C4C(OC(C)=O)CC5CC(OC(C)=O)CCC5(C)C4CCC23C)nc2ccccc12 (centres unmarked) [Hybrid 4f]	20–30 fold
C=CC1CN2CCC1CC2C(O)c1cc(CCC(C)C2CCC3C4C(O)CC5CC(O)CCC5(C)C4CCC23C)nc2ccccc12 (centres unmarked) [Hybrid 5f]	20–30 fold
